The supplement of paper PMC12823440, “Inhibitors supercharge kinase turnover through native proteolytic circuits” (Nature, 2025)
Where a name gives a salt, the structure may show the parent alone. Some of the results follow. The calls rarely recur for the same compound in another form.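 Kinases were expressed as nanoluciferase fusions in K562 cells and luminescence was read every 4 h between 2 and 18 h as percent of control, DMSO set to 100% and a positive control to 0%. A time point counts as decreased when the signal drops significantly (2 sigma). The hit call is the authors' own, does not follow from the count of time points alone, and its rule is not shown.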

Sequences of proteins named here, by UniProt entry; tags and fusion partners are left off.
UniProt Q16620, whole entry, looked up: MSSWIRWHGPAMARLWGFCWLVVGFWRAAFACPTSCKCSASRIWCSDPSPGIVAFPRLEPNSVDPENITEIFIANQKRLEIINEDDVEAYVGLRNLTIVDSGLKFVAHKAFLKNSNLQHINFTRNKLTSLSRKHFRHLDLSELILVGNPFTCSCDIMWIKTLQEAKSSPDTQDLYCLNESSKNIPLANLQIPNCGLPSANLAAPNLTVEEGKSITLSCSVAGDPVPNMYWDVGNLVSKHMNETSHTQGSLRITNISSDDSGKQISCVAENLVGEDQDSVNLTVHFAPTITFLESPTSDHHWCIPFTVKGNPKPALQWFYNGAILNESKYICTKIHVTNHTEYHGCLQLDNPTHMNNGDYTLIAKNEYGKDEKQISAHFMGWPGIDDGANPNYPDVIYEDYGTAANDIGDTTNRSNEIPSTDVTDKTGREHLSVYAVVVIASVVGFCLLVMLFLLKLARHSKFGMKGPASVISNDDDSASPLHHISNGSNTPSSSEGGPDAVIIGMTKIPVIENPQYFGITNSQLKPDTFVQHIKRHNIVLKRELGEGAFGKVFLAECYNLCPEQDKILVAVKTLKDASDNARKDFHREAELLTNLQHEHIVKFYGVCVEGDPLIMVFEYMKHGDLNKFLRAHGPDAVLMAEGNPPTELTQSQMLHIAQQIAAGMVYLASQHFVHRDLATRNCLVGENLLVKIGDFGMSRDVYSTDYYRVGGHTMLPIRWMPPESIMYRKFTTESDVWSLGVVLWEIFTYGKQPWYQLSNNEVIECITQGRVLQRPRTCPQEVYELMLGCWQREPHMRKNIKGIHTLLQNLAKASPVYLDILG

biological target: NTRK2 (UniProt Q16620); test: number of time points (of 5) at which kinase-Nluc abundance scored as decreased, DMSO-normalised (count); higher = more persistent destabilization; details: K562; 2-18 h

Row | Compound | number of time points
1 | FC(F)(c1ccc2ncccc2c1)c1nnc2ccc(-c3ccncc3)nn12 (10 µM) | 0
2 | COc1ccc(-c2ccc3c(N4CCOCC4)nc(N4C[C@@H](C)O[C@@H](C)C4)nc3n2)cc1CO (2.5 µM) | 0
3 | C=CC(=O)Nc1ccc(CN2C(=O)N(c3cc(OC)cc(OC)c3)Cc3cnc(Nc4ccc(N5CCN(C)CC5)cc4)nc32)cc1 (2.5 µM) | 0
4 | O=C1NC(=O)/C(=C\c2cccc(C(F)(F)F)c2)S1 (2.5 µM) | 0
5 | CN(C)C(=O)Cn1cc(-c2ccc(-c3cncc4ccccc34)cc2)cn1 (10 µM) | 0
6 | COc1ccccc1-c1cc(Nc2cccc(CS(N)(=O)=O)c2)ncn1 (10 µM) | 2
7 | C[C@@H]1COCCN1c1cc(C2([S@@](C)(=N)=O)CC2)nc(-c2ccnc3[nH]ccc23)n1 [(S)-Ceralasertib] (10 µM) | 0
8 | c1cc(-c2c[nH]c3nccc(N4CCC[C@@]5(CCCCN5)C4)c23)ncn1 (10 µM) | 0
9 | Cc1ccc2nc(NCCN)c3ncc(C)n3c2c1 (2.5 µM) | 0
10 | C=CC(=O)Nc1cccc(Nc2nc(Nc3ccc(NC4CN(CCF)C4)cc3OC)ncc2C(F)(F)F)c1 (2.5 µM) | 0
11 | COc1ncc(Cl)cc1S(=O)(=O)Nc1ccc(F)c(C#Cc2cnc(N)nc2)c1F (2.5 µM) | 0
12 | C=CC(=O)Nc1cccc(Nc2nc(Nc3ccc(N4CCN(C(C)=O)CC4)cc3OC)ncc2C(F)(F)F)c1 [Rociletinib hydrobromide] (10 µM) | 0
13 | C[C@@]1(c2ncncc2F)NC(=O)c2cc(-c3cn[nH]c3)ccc21 (10 µM) | 0
14 | Cc1[nH]c(/C=C2\C(=O)Nc3ccc(F)cc32)c(C)c1C(=O)N[C@H]1CCN(C(=O)N(C)C)C1 [Vorolanib] (10 µM) | 0
15 | NC(=O)c1ccc(-c2nc(-c3ccc4c(c3)OCCO4)c(-c3ccccn3)[nH]2)cc1 (10 µM) | 0
16 | Cc1ccc2cc(-c3c(C)ccc(C(=O)c4c(-c5ccccc5)n(C)n(-c5ccccc5)c4=O)c3N)ccc2n1 (2.5 µM) | 0

Row | Compound | number of time points
17 | OCCn1cc(-c2ccc3c(c2)CC/C3=N\O)c(-c2ccncc2)n1 (10 µM) | 0
18 | NCCNS(=O)(=O)c1cccc2c(Cl)cccc12 [A-3 (hydrochloride)] (10 µM) | 0
19 | COc1cccc(OC)c1C(=O)OCc1cc(O)ccc1O[C@@H]1O[C@H](CO)[C@@H](O)[C@H](O)[C@H]1O [Curculigoside] (10 µM) | 0
20 | CC#CC(=O)N1CC[C@@H](n2c(=O)n(-c3ccc(Oc4ccccc4)cc3)c3c(N)ncnc32)C1 [Tirabrutinib] (10 µM) | 0
21 | CC1=C(C(=O)O)N2C(=O)[C@@H](NC(=O)[C@H](N)C3=CCC=CC3)[C@H]2SC1 [Cephradine] (10 µM) | 0
22 | CC(C)(C)c1nc(-c2cccc(NS(=O)(=O)c3c(F)cccc3F)c2F)c(-c2ccnc(N)n2)s1 [Dabrafenib] (2.5 µM) | 0
23 | COc1cc2c(N3CCN(C(=O)Nc4ccc(OC(C)C)cc4)CC3)ncnc2cc1OCCCN1CCCCC1 [Tandutinib] (10 µM) | 0
24 | Nc1cc(C(F)(F)F)c(-c2cc(N3CCOCC3)nc(N3CCOCC3)n2)cn1 [Buparlisib (Hydrochloride)] (2.5 µM) | 0
25 | Cn1cc(-c2ccc3c(c2)CCN3C(=O)Cc2cccc(C(F)(F)F)c2)c2c(N)ncnc21 (2.5 µM) | 0
26 | O=C1NC(=O)/C(=C/c2ccc3nccnc3c2)S1 (10 µM) | 0
27 | Cn1ncc(Cl)c1-c1cc(C(=O)N[C@H](CN)Cc2ccc(F)c(F)c2)oc1Cl [Uprosertib] (10 µM) | 0
28 | COCCNc1nc2ccc(C#CC3(O)CCCCC3)cc2n1-c1ccnc(N)n1 (10 µM) | 0
29 | CC(=O)NC1CC(n2cnc(NC(=O)Cc3ccc4ccccc4c3)c2)C1 (configuration not stated) (10 µM) | 0
30 | COc1cc(Nc2ncc(F)c(Nc3ccc4c(n3)NC(=O)C(C)(C)O4)n2)cc(OC)c1OC (10 µM) | 0
31 | C=C(CC[C@@H](C(=O)O)[C@H]1[C@H](O)C[C@@]2(C)C3=C(CC[C@]12C)[C@@]1(C)CC[C@H](OC(C)=O)C(C)(C)[C@@H]1CC3)C(C)C [Pachymic acid] (10 µM) | 0
32 | O=C(NOCC(O)CO)c1cc(Br)c(F)c(F)c1Nc1ccc(I)cc1F (configuration not stated) (2.5 µM) | 0

Among those listed so far, five contain an NH in an aromatic ring:
Row | Compound | number of time points
7 | C[C@@H]1COCCN1c1cc(C2([S@@](C)(=N)=O)CC2)nc(-c2ccnc3[nH]ccc23)n1 [(S)-Ceralasertib] (10 µM) | 0
8 | c1cc(-c2c[nH]c3nccc(N4CCC[C@@]5(CCCCN5)C4)c23)ncn1 (10 µM) | 0
13 | C[C@@]1(c2ncncc2F)NC(=O)c2cc(-c3cn[nH]c3)ccc21 (10 µM) | 0
14 | Cc1[nH]c(/C=C2\C(=O)Nc3ccc(F)cc32)c(C)c1C(=O)N[C@H]1CCN(C(=O)N(C)C)C1 [Vorolanib] (10 µM) | 0
15 | NC(=O)c1ccc(-c2nc(-c3ccc4c(c3)OCCO4)c(-c3ccccn3)[nH]2)cc1 (10 µM) | 0
